Data source: PubChem BioAssay AID743454 (Peter MacCallum Cancer Centre, 2014)

Purpose: 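Knock-downs lowering viability or raising caspase 3/7 activity in vorinostat-treated resistant cells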 (primary screen)
Cell system: human HCT116-VR colon cancer cells, selected for vorinostat resistance
Knock-down reagent: siRNA pool against human genes, 40 nM siRNA pool
Duration: vorinostat for 24 h, read-out about 72 h after transfection
Treatment: vorinostat at 2.5 µM final
Measurement: 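Two measures, CellTiter-Fluor viability and luminescent caspase 3/7 activity, each as fold change against same-plate mock wells, mean of duplicates, then screen-wide robust z-score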
Reading the numbers: viability robust z-score: higher = more viable cells than screen typical; caspase robust z-score: higher = more caspase 3/7 activity than screen typical
Hit rule: 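Hits are knock-downs in viability class RV1/RV2 or caspase class CA1/CA2, excluding ones that killed cells in the no-drug cell-count arm; hits then retested with single siRNAs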
Here is an unselected part of about 18,000 reagents. 450 of all reagents (2.5%) were called active. 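Single biological run; no consistent viability z cut-off exists, so the class columns, not z-scores, define the calls.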 Entries without a mark were called inactive. The numbers tell different reagents against one gene apart.

What did the screen give for APEH (acylaminoacyl-peptide hydrolase)?
viability hit class: no change; caspase hit class: no change; viability robust z-score: 0.8; caspase robust z-score: -0.64

With CCDC127 (coiled-coil domain containing 127), what does the deposit list?
viability hit class: no change; caspase hit class: no change; viability robust z-score: 1.17; caspase robust z-score: -0.34

For CFAP61 (cilia and flagella associated protein 61), what was measured?
viability hit class: no change; caspase hit class: no change; viability robust z-score: 0.6; caspase robust z-score: 0.19

With SYT5 (synaptotagmin 5), what was measured?
viability hit class: no change; caspase hit class: no change; viability robust z-score: 0.5; caspase robust z-score: -0.35

What did the screen give for CNIH2 (cornichon family AMPA receptor auxiliary protein 2)?
viability hit class: no change; caspase hit class: no change; viability robust z-score: 0.18; caspase robust z-score: 0.08

Which result is listed for ARL6 (ARF like GTPase 6)?
viability hit class: no change; caspase hit class: no change; viability robust z-score: -0.08; caspase robust z-score: -0.74

Which result is listed for POLQ (DNA polymerase theta)?
viability hit class: no change; caspase hit class: no change; viability robust z-score: -0.18; caspase robust z-score: -0.16

What is on record for PDHA1 (pyruvate dehydrogenase E1 subunit alpha 1)?
viability hit class: no change; caspase hit class: no change; viability robust z-score: -0.15; caspase robust z-score: 1.1

For CWF19L1 (CWF19 like cell cycle control factor 1), how do the results read?
viability hit class: no change; caspase hit class: no change; viability robust z-score: -0.34; caspase robust z-score: 0.06

How did the screen score IER2 (immediate early response 2)?
viability hit class: no change; caspase hit class: no change; viability robust z-score: 0.31; caspase robust z-score: -0.84

With YEATS4 (YEATS domain containing 4), what does the deposit list?
viability hit class: no change; caspase hit class: no change; viability robust z-score: -0.13; caspase robust z-score: -0.22

For ZFHX3 (zinc finger homeobox 3), what was measured?
viability hit class: no change; caspase hit class: no change; viability robust z-score: 1.88; caspase robust z-score: -0.29

Single entries from the list:
Under “caspase robust z-score”, PDHA1 (pyruvate dehydrogenase E1 subunit alpha 1) has 1.1
Under “caspase robust z-score”, APEH (acylaminoacyl-peptide hydrolase) reads -0.64

Next records:
For DHRS7B (dehydrogenase/reductase 7B), what does the deposit list?
viability hit class: no change; caspase hit class: no change; viability robust z-score: 0.49; caspase robust z-score: -0.46

For TMEM257 (retired record), what was measured?
viability hit class: no change; caspase hit class: no change; viability robust z-score: 0.24; caspase robust z-score: -0.53

With RASL11B (RAS like family 11 member B), what does the deposit list?
viability hit class: no change; caspase hit class: no change; viability robust z-score: -0.5; caspase robust z-score: 1.64

For EGLN1 (egl-9 family hypoxia inducible factor 1), how do the results read?
viability hit class: no change; caspase hit class: no change; viability robust z-score: -0.29; caspase robust z-score: 1.29

With ZNF674 (zinc finger protein 674), what does the deposit list?
viability hit class: no change; caspase hit class: no change; viability robust z-score: 1.38; caspase robust z-score: -0.96

Which result is listed for DCDC1 (doublecortin domain containing 1) #1?
viability hit class: no change; caspase hit class: no change; viability robust z-score: -0.11; caspase robust z-score: -1.17

For DCDC1 (doublecortin domain containing 1) #2, what was measured?
viability hit class: no change; caspase hit class: no change; viability robust z-score: 0.69; caspase robust z-score: -0.48

How did the screen score GMFB (glia maturation factor beta)?
viability hit class: no change; caspase hit class: no change; viability robust z-score: 1.11; caspase robust z-score: -0.83

With ADGRA3 (adhesion G protein-coupled receptor A3), what does the deposit list?
viability hit class: no change; caspase hit class: no change; viability robust z-score: 1.17; caspase robust z-score: -0.98
